Test results as given in patent publication US11234971B2, “Methods of treating cancer comprising administration of a glucocorticoid receptor modulator and a cancer chemotherapy agent” (Corcept Therapeutics Incorporated, priority 2018, dated 2022).

Test system: OVCAR-5 human ovarian cancer cells
Test: OVCAR-5 cell growth (Cell Titer-Glo) with chemotherapy agents with or without dexamethasone and relacorilant
Type: cell-based
Details: 100 nM dexamethasone, 300 nM relacorilant
Procedure: The initial cell density was chosen to be low enough to allow for several population doublings (typically 3 to 5) during the indicated incubation period. […] After 48 hours of incubation, serially diluted test agents in growth medium were added to each well. After 72 hours of culture, the plated cells and Cell Titer-Glo® (Promega G7571) reagents were brought to room temperature to equilibrate for 30 minutes. 200 μL of Cell Titer-Glo® reagent was then added to each well, the plate was shaken for two minutes, and then left to equilibrate for ten minutes. The Cell Titer-Glo® cell viability assay uses ATP levels to determine cell numbers. After this equilibration, luminescence was read on the Biotech Synergy II microplate reader. The percent control (% C) of cell growth for each test concentration was calculated relative to untreated wells. All tests were performed in quadruplicate. Individual assay plates were evaluated for appropriate signal and well-to-well variance in the control wells for quality control.

SMILES: CC/C(=C(\c1ccccc1)c1ccc(OCCN(C)C)cc1)c1ccccc1 [Tamoxifen]
- IC50 (decrease in IC50 of the agent from dexamethasone-alone to relacorilant + dexamethasone): −
